Data as given in PubChem BioAssay AID1224826 (NIAID, 2016)
In all, the deposit lists about 17,000 reagents; shown is a part drawn at random. In the full data, about 1,110 (6.6%) were called active. 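Active means lowered or raised reporter signal; replicate intensities are raw and not normalised per plate.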 Not all columns of the deposit are shown. Reagent sequences are not shown.

Purpose: 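Genes that change LPS-induced Tnf promoter activity in mouse macrophages when knocked down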 (primary screen)
Cell system: RAW264.7 G9 macrophages from mouse bearing reporters for p65 (GFP) and the Tnf promoter (mCherry)
Reagents: siRNA pool against mouse genes, 100 nM
Timing: 16 h of LPS stimulation, after 2 days of siRNA transfection
Treatment: bacterial lipopolysaccharide (Salmonella minnesota R595), 10 ng/ml
Measured: 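Imaged Tnf reporter mCherry in nuclei, minus background, normalised per plate to the median and expressed as robust z-scores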
Reading the numbers: Tnf reporter robust z-score: higher = stronger Tnf promoter reporter signal after LPS; Tnf reporter intensity: higher = stronger Tnf promoter reporter signal
Call rule: 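a well counts as active at a score of -1.3 or below (Tlr4 knock-down control median) or above 3 (raised signal); controls and wells holding fewer than 50 cells are excluded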
Meaning of the calls: active = Tnf reporter clearly lowered or raised; inactive = no clear change in Tnf reporter

no.	Target gene	Tnf reporter robust z-score	fewer than 50 cells in well	Tnf reporter intensity, replicate 1	Outcome
1	Nit1	0.11	enough cells in well	217	inactive
2	S100a9	0.2	enough cells in well	307	inactive
3	Mapk8	-0.61	enough cells in well	167	inactive
4	Cstf2	0.83	enough cells in well	252	inactive
5	Dnajc14	-0.99	enough cells in well	87.8	inactive
6	Rab27b	0.68	enough cells in well	369	inactive
7	Snrnp25	-0.39	enough cells in well	141	inactive
8	Vmn2r30	-1.37	enough cells in well	73.1	active
9	Atm	0.71	enough cells in well	140	inactive
10	Alox12e	1.2	enough cells in well	240	inactive
11	Prrx2	-0.87	enough cells in well	169	inactive
12	Zfp866	0.22	enough cells in well	254	inactive
13	Gdpd1	0.44	enough cells in well	237	inactive
14	Dmac1		fewer than 50 cells per well; well left out of calls	184	inactive
15	Scgb1b27	0.02	enough cells in well	248	inactive
16	Cd38	0.9	enough cells in well	269	inactive
17	BC061195	-0.27	enough cells in well	159	inactive
18	Clic3	1.05	enough cells in well	315	inactive
19	Psmd5	-0.6	enough cells in well	224	inactive
20	Hmx1	-0.07	enough cells in well	204	inactive
21	Slc38a11	-0.06	enough cells in well	193	inactive
22	Catsper3	-0.14	enough cells in well	135	inactive
23	Cbl	1.47	enough cells in well	288	inactive
24	Slc15a1	0.18	enough cells in well	103	inactive

Limited to “Tnf reporter intensity, replicate 1”, for 3 of the entries above:
S100a9: 307
Mapk8: 167
Cstf2: 252
